Measurements taken from paper PMC10141604, “Small-Molecule Inhibition of Androgen Receptor Dimerization as a Strategy against Prostate Cancer” (ACS Central Science, 2023).

Test system: LNCaP cells
Experiment: RNA-seq transcriptome sequencing of LNCaP cells
Format: cell-based
Conditions: 10 nM DHT, antagonists 10 μM with DHT, 48 h

| SMILES | down-regulated genes (RNA-seq) | up-regulated genes (RNA-seq) |
| --- | --- | --- |
| CC(=O)Cc1nsc(NC(=O)c2cc(-c3cccc(C(F)(F)F)c3)oc2C)n1 [Compound M17-B15] | 32 | 6 |
| C[C@]12CCC(=O)C[C@@H]1CC[C@@H]1[C@@H]2CC[C@]2(C)[C@@H](O)CC[C@@H]12 [DHT, 5α-dihydrotestosteron] | 222 | 268 |
| CNC(=O)c1ccc(N2C(=S)N(c3ccc(C#N)c(C(F)(F)F)c3)C(=O)C2(C)C)cc1F [Enz, enzalutamide, reference compound] | 97 | 56 |
